Laboratory results taken from PubChem BioAssay (Tox21).
“And” between values parts separate entries of the source, which are not always exact repeats. Identical values can stand only once. This list was built around the results that the source calls inconclusive (neither active nor inactive); the mix of calls is not that of the screen. A potency beside an inconclusive call is a rough fit, not a confirmed value. The source made the active and inactive calls. Calls come from the whole dose curve.

target: Beta-2 adrenergic receptor (Homo sapiens) (UniProt P07550); experiment: Adrenergic beta2 receptor (ADRB2) small molecule agonists, cell-based qHTS assay (AID 1963593); conditions: CHO-ADRB2 cells, cAMP HTRF, 30 min; activation: at 92.4 µM (top of the series) unless noted;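 for activation: CHO cells stably overexpressing human ADRB2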
Outline: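 CHO cells stably over-expressing ADRB2 were plated overnight at 37C, then dosed with compounds plus a stimulation mix containing 100uM IBMX and 25uM Ro-20-1724 for 0.5hr at room temperature. cAMP was measured by HTRF competition, 1hr.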
% is set by controls: 0 for no effect and ±100 for the full control effect; potency is the fitted concentration of half-maximal effect.

| SMILES | activation | Potency |
| --- | --- | --- |
| CCN(CC)Cc1nccn1-c1ccc([N+](=O)[O-])cc1C(=O)c1ccccc1Cl | inactive: -23.5% [at 42.5 µM] |  |
| BrCC(Br)c1ccccc1 (centres undefined) | inconclusive: -0.497% |  |
| C#CCN(C)[C@H](C)Cc1ccccc1 |  | inconclusive: 4.22 µM [inhibitor, partial curve, poor fit] |
| CCC(C)C(C)(COC(N)=O)COC(N)=O (centres undefined) |  | inconclusive: 2.66 µM [inhibitor, single point] |
| ClC(Cl)C(Cl)(Cl)Cl |  | inconclusive: 4.24 µM [inhibitor, partial curve, poor fit] |
| O=C(Cl)CCl | inactive: -18.3% |  |
| ClCC(Cl)(Cl)Cl | inconclusive: -13.5% |  |
| COc1ncc(F)c2nc(S(=O)(=O)Nc3c(F)cccc3F)nn12 | inactive: -2.39% [at 42.5 µM] |  |
| NC(=O)CF | inconclusive: 7.59% |  |
| O=S(=O)(O)F |  | inconclusive: 0.0604 µM [activator, full curve, poor fit] |
| O=C(O)C(Cl)Br (centres undefined) | inconclusive: 20.1% |  |
| Cc1ccc(N)cc1N |  | inconclusive: 59.5 µM [falling, partial curve, poor fit] and inconclusive: 43.3 µM [falling, partial curve, poor fit] |
| C[N+](C)(C)CC1CO1 (centres undefined) | inconclusive: -4.8% |  |
| O=C(O)C(Cl)(Cl)Cl | inconclusive: -19.5% |  |
| CC1CCC(=O)O1 (centres undefined) |  | inconclusive: 0.217 µM [inhibitor, partial curve] |
| CN(C)C(=O)Nc1cccc(C(F)(F)F)c1 |  | inconclusive: 14 µM [inhibitor, partial curve, poor fit] and inactive |
| O=C(Cl)C(Cl)Cl | inconclusive: 13.4% |  |
| [N-]=[N+]=CC(=O)OC[C@H](N)C(=O)O |  | inconclusive: 21.7 µM [inhibitor] and inactive |
| O=[N+]([O-])c1cc(Cl)c(Cl)c(Cl)c1 |  | inconclusive: 5.4 µM [inhibitor, single point] |
| C=C1CC[C@@]2(O)[C@H]3Cc4ccc(O)c5c4[C@@]2(CCN3CC2CC2)[C@H]1O5 | inactive: 8.55% [at 42.5 µM] |  |

| SMILES | activation | Potency |
| --- | --- | --- |
| N#Cc1ccc(Cl)cc1 | inactive: 1.84% |  |
| CCC1(c2ccccc2)C(=O)NC(=O)NC1=O | inconclusive: -32.8% |  |
| CN(C)N | inconclusive: -22.6% |  |
| Cn1c(N)nc2c3cccnc3ccc21 | inactive: -37.7% |  |
| Cc1ccc2cc3c(ccc4ccccc43)c3c2c1CC3 | inactive: 0.605% [at 42.5 µM] |  |
| CCC#N | inactive: -25.4% |  |
| NCC(CC(=O)O)c1ccc(Cl)cc1 (centres undefined) | inactive: 10.6% [at 0.349 µM] |  |
| O=P(O)(O)c1ccccc1 | inactive: 2.8% |  |
| O=C(NC(=O)c1c(F)cccc1F)Nc1ccc(Cl)cc1 |  | inactive |
| Cc1ccn2nc(S(=O)(=O)Nc3c(F)cccc3F)nc2n1 | inconclusive: -50.7% |  |
| Clc1cc(Cl)c(Cl)c(Cl)c1 |  | inconclusive: 0.601 µM [inhibitor, single point] |
| CC(C)C(Br)C(=O)NC(N)=O (centres undefined) | inconclusive: 18.3% [at 42.5 µM] |  |
| O=NN(c1ccccc1)c1ccccc1 |  | inactive |
| CC(C)CC#N | inconclusive: 2.38% |  |
| ClCc1ccccc1CCl |  | inconclusive: 13.7 µM [inhibitor, single point] |
| O=P(Cl)(Cl)Cl | inactive: 11.1% |  |
| CN | inconclusive: 13.9% |  |
| CCCCCCCCCCCCCCCl | inconclusive: -31% |  |
| OCC(Br)CBr (centres undefined) |  | inconclusive: 31 µM [rising, partial curve, poor fit] |
